For two molecules, binding results are on record in article PMC12345631.

Sequences of proteins named here, by UniProt entry; tags and fusion partners are left off.
UniProt P53297: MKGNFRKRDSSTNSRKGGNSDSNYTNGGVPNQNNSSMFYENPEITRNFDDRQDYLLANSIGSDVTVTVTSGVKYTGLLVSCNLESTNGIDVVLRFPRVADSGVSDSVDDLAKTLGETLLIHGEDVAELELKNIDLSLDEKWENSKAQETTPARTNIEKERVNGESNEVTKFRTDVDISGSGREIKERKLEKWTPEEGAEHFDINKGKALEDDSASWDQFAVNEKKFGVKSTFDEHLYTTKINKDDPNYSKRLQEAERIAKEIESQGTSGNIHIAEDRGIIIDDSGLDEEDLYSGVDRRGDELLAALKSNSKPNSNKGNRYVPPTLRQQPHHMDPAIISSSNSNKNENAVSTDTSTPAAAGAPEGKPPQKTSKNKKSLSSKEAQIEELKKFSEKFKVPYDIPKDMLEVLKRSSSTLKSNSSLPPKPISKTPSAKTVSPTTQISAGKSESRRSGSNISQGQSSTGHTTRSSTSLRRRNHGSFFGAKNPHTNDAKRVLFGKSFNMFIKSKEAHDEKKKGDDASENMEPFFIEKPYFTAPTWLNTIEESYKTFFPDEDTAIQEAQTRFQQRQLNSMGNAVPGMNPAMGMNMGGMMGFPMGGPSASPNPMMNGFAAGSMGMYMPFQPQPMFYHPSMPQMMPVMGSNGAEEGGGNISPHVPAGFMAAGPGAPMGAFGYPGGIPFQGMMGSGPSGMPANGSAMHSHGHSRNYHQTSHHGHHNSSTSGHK

These are yes or no findings as the source states them, for the method shown. In cells and extracts the contact can be indirect. These calls come from enrichment with a bait or labelling near it, and not all partners need be listed. Where a sequence is shown, tags or fusion partners need not be part of it.

Assay [1] concerns the target T1, Mkt1-Flag (Mkt1-G30/R453 allele, the CEN.PK wild type) (S. cerevisiae) (UniProt P40850).
T1 sequence: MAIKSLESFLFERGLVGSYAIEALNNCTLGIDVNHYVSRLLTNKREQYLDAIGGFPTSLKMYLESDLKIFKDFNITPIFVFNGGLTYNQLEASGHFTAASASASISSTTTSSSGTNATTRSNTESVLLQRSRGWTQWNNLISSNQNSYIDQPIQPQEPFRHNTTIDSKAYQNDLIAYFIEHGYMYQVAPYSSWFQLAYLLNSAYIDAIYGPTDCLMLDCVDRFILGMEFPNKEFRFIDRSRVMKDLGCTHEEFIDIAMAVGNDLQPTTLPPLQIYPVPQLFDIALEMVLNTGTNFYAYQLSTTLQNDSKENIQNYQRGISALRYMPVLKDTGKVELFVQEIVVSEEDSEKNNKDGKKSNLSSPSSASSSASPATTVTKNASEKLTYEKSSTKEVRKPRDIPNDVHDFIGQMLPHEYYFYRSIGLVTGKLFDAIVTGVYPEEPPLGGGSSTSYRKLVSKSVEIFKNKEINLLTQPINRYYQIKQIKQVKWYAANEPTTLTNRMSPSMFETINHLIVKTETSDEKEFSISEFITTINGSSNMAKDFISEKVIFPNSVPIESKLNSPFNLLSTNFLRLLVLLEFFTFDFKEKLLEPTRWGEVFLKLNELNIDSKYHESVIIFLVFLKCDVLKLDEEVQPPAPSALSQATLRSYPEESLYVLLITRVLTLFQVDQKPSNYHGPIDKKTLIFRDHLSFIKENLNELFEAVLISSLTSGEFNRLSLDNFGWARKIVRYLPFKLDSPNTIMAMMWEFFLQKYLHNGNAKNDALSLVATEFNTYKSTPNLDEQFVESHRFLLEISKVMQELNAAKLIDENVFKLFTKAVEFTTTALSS
Kind of assay: affinity purification with mass spectrometry; anti-Flag IP from lysates of Mkt1-Flag and Pbp1-Flag yeast grown in YPD (log phase) and 3 h after switch to YPL; whole IP samples, and in a second experiment bands cut from a silver-stained gel (YPL, log phase).

The target of assay [2] is Pbp1-Flag (S. cerevisiae) (UniProt P53297). The assay is described as above.

As to “Poly(A) binding protein-binding protein 1 (Pbp1), untagged (from UniProt P53297 1-722)”, the binding entry in assay [1] is reported as “binds”.

B1: Maintenance of K2 killer toxin 1 (Mkt1), untagged (protein, UniProt P40850 1-830)
chain: MAIKSLESFLFERGLVGSYAIEALNNCTLGIDVNHYVSRLLTNKREQYLDAIGGFPTSLKMYLESDLKIFKDFNITPIFVFNGGLTYNQLEASGHFTAASASASISSTTTSSSGTNATTRSNTESVLLQRSRGWTQWNNLISSNQNSYIDQPIQPQEPFRHNTTIDSKAYQNDLIAYFIEHGYMYQVAPYSSWFQLAYLLNSAYIDAIYGPTDCLMLDCVDRFILGMEFPNKEFRFIDRSRVMKDLGCTHEEFIDIAMAVGNDLQPTTLPPLQIYPVPQLFDIALEMVLNTGTNFYAYQLSTTLQNDSKENIQNYQRGISALRYMPVLKDTGKVELFVQEIVVSEEDSEKNNKDGKKSNLSSPSSASSSASPATTVTKNASEKLTYEKSSTKEVRKPRDIPNDVHDFIGQMLPHEYYFYRSIGLVTGKLFDAIVTGVYPEEPPLGGGSSTSYRKLVSKSVEIFKNKEINLLTQPINRYYQIKQIKQVKWYAANEPTTLTNRMSPSMFETINHLIVKTETSDEKEFSISEFITTINGSSNMAKDFISEKVIFPNSVPIESKLNSPFNLLSTNFLRLLVLLEFFTFDFKEKLLEPTRWGEVFLKLNELNIDSKYHESVIIFLVFLKCDVLKLDEEVQPPAPSALSQATLRSYPEESLYVLLITRVLTLFQVDQKPSNYHGPIDKKTLIFRDHLSFIKENLNELFEAVLISSLTSGEFNRLSLDNFGWARKIVRYLPFKLDSPNTIMAMMWEFFLQKYLHNGNAKNDALSLVATEFNTYKSTPNLDEQFVESHRFLLEISKVMQELNAAKLIDENVFKLFTKAVEFTTTALSS
As to B1, the binding entry in assay [2] is given as “binds”.
